Binding data for six substances are collected here from publication PMC3931753.

Sequences of proteins named here, by UniProt entry; tags and fusion partners are left off.
UniProt P03372: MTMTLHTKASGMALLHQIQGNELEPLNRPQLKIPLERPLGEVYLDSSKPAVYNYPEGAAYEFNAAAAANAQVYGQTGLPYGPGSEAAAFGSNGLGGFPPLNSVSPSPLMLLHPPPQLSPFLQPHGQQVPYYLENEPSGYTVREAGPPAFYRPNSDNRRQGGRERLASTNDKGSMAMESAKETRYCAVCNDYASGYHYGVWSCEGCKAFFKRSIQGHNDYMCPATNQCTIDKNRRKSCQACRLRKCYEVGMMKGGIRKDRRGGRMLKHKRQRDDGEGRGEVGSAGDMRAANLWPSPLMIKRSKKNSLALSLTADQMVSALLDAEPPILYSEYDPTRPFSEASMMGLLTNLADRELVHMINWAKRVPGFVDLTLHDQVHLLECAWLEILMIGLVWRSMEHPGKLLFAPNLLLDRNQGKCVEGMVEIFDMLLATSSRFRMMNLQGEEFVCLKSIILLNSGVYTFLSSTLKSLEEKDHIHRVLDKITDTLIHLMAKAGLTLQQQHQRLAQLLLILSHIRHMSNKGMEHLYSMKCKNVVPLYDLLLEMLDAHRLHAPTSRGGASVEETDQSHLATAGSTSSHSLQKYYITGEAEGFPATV

No constants are given. Whether binding was seen depends on the method and setting. Binding seen in cells or lysates may run through a third protein. Some entries that bind do so weakly or less than the wild type.

Assay in all cases: co-IP
The target of experiment [1] is E2 receptor alpha (ERα) (human (endogenous in MCF-7)) (UniProt P03372).
The target of experiment [2] is HTLV-1 Tax oncoprotein, wild type (HTLV-1) (UniProt P03409).
Experiment [3] has as its target p300 co-activator (endogenous) (human (endogenous in MCF-7)) (UniProt Q09472).
Experiment [4] concerns the target CBP co-activator (endogenous) (human (endogenous in MCF-7)) (UniProt Q92793).

Take “CBP co-activator (endogenous) (from UniProt Q92793 1-2442)”: the binding entry in experiment [1] and in experiment [2] was “binds” in each case.
For “E2 receptor alpha (ERα) (from UniProt P03372 1-595)”, the binding entry in experiment [3] and in experiment [4] was “binds” throughout.
Consider “HTLV-1 Tax oncoprotein, wild type (from UniProt P03409 1-353)”, for which the binding entry in experiment [3] and in experiment [4] was “binds” throughout.
In the case of “ectopic CBP (overexpressed from plasmid) (from UniProt Q92793 1-2442)”, the binding result in experiment [1] and in experiment [2] was “binds” in each case.
On to “ectopic p300 (overexpressed from plasmid) (from UniProt Q09472 1-2414)”, for which the binding entry in experiment [1] and in experiment [2] was “binds” in each case.
For the substance “p300 co-activator (endogenous) (from UniProt Q09472 1-2414)”, the binding entry in experiment [1] and in experiment [2] was “binds” each time.
